From PubChem BioAssay AID328 (DTP/NCI, 2004)
The list does not hold the whole screen: it is rich in T/C values a quarter to a half above the control, in often repeated tests (any T/C) and in doses without a T/C. Other doses and runs of a compound stand elsewhere. T/C gives the treated animals as a percentage of the vehicle group. Some doses have a count of surviving animals in place of a T/C: the source holds a T/C of zero for them, seemingly a mark for toxic or unscored doses. Some doses without a T/C left all or most animals alive at the check, yet need not have been tolerated: the source hardly ever lists a survival T/C far under the control, and the zero likely stands for such cases as well. Survivors were counted at the toxicity check, usually on the fifth day, unless a day is given; later deaths do not show. Schedule codes are those of the source, taken here to give the interval after Q, in days (D) or hours (H), and the number of doses after X. Some entries hold several experiments; the results are listed from low to high. For survival time, this PubChem deposit counts one and a half times the control or more as active, and values a quarter to a half above the control carry no call in these data; other NCI protocols may use other cut-offs.

Test system: BDF1 mice, P388 leukemia ip, median survival T/C
Test: NCI In Vivo Anticancer Drug Screen. Data for tumor model P388 Leukemia (intraperitoneal) in B6D2F1 (BDF1) mice
Conditions: T/C endpoint: median survival time, higher T/C = longer survival
Summary of the method: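 Vehicle-dosed animals serve as the reference; survival of compound-dosed, tumour-implanted mice is divided by it.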

[1] = dose: 200.0 mg/kg/injection, schedule: Q01DX009 (ip), vehicle: other
[2] = dose: 200.0 mg/kg/injection, schedule: Q01DX009 (ip), vehicle: saline
[3] = dose: 200.0 mg/kg/injection, schedule: Q01DX009 (ip), vehicle: saline with Tween-80
[4] = dose: 25.0 mg/kg/injection, schedule: Q01DX009 (ip), vehicle: saline with Tween-80
[5] = dose: 400.0 mg/kg/injection, schedule: Q04DX003 (ip), vehicle: saline with Tween-80
[6] = dose: 50.0 mg/kg/injection, schedule: Q01DX009 (ip), vehicle: Klucel (hydroxypropylcellulose) (HPC)
[7] = dose: 100.0 mg/kg/injection, schedule: Q01DX009 (ip), vehicle: Klucel (hydroxypropylcellulose) (HPC)
[8] = dose: 100.0 mg/kg/injection, schedule: Q04DX003 (ip), vehicle: Klucel (hydroxypropylcellulose) (HPC)
[9] = dose: 200.0 mg/kg/injection, schedule: Q01DX009 (ip), vehicle: Klucel (hydroxypropylcellulose) (HPC)
[10] = dose: 400.0 mg/kg/injection, schedule: Q04DX003 (ip), vehicle: Klucel (hydroxypropylcellulose) (HPC)
[11] = dose: 100.0 mg/kg/injection, schedule: Q01DX009 (ip), vehicle: saline
[12] = dose: 400.0 mg/kg/injection, schedule: Q01DX009 (ip), vehicle: saline
[13] = dose: 100.0 mg/kg/injection, schedule: Q01DX009 (ip), vehicle: saline with Tween-80
[14] = dose: 12.5 mg/kg/injection, schedule: Q01DX009 (ip), vehicle: saline with Tween-80
[15] = dose: 50.0 mg/kg/injection, schedule: Q01DX009 (ip), vehicle: saline with Tween-80

C=CS(=O)(=O)c1ccccc1
T/C (dose: 25.0 mg/kg/injection, schedule: Q01DX009 (ip), vehicle: other): 131 % of control
T/C (dose: 36.0 mg/kg/injection, schedule: Q01DX009 (ip), vehicle: saline with Tween-80): 138 % of control
T/C (dose: 50.0 mg/kg/injection, schedule: Q01DX009 (ip), vehicle: other): 125 % of control
T/C (dose: 54.0 mg/kg/injection, schedule: Q01DX009 (ip), vehicle: saline with Tween-80): 129 % of control
survivor count (dose: 100.0 mg/kg/injection, schedule: Q01DX009 (ip), vehicle: other): 2 of 6
survivor count [1]: 0 of 6

O=C(/C=C/c1cccc(Br)c1)c1ccc(Cl)cc1
T/C [1]: 130 % of control

Cn1ccn(C2CCCCC2)c1=O
survivor count (dose: 100.0 mg/kg/injection, schedule: Q04DX003 (ip), vehicle: saline with Tween-80): 6 of 6

CCN(CC)CCCCCNc1cc(Cl)c(Cl)cc1[N+](=O)[O-]
survivor count [2]: 0 of 6

C=C(CCC(C(=O)O)C1CCC2(C)C3=C(CCC12C)C1(C)CCC(O)C(C)(C)C1CC3)C(C)C (configuration not stated)
survivor count (dose: 50.0 mg/kg/injection, schedule: Q01DX009 (sc), vehicle: steroid suspending solution): 6 of 6
survivor count (dose: 200.0 mg/kg/injection, schedule: Q01DX009 (ip), vehicle: steroid suspending solution): 5 of 6

O=C(CC(=O)C(F)(F)F)c1ccc(-c2ccccc2)cc1
survivor count [3]: 0 of 6

O=C(Nc1cccc(C(F)(F)F)c1)C12CC3CC(CC(C3)C1)C2
survivor count [4]: 6 of 6

NC(=O)N(CCCl)N=O
T/C (dose: 2.0 mg/kg/injection, schedule: Q01DX010 (ip), vehicle: saline): 131 % of control
survivor count (dose: 5.0 mg/kg/injection, schedule: Q01DX010 (ip), vehicle: saline): 6 of 6
survivor count (dose: 10.0 mg/kg/injection, schedule: Q01DX010 (ip), vehicle: saline): 2 of 6
survivor count (dose: 20.0 mg/kg/injection, schedule: Q01DX010 (ip), vehicle: saline): 0 of 6 and 2 of 6

CCCCS(=O)(=O)OCCCCOS(=O)(=O)CCCC
T/C [5]: 136 % of control

Nc1nc(SN=Nc2ccc(S(=O)(=O)O)cc2)c2[nH]cnc2n1
T/C (dose: 6.0 mg/kg/injection, schedule: Q01DX009 (ip), vehicle: Klucel (hydroxypropylcellulose) (HPC)): 130 % of control
T/C (dose: 6.25 mg/kg/injection, schedule: Q01DX009 (ip), vehicle: Klucel (hydroxypropylcellulose) (HPC)): 135 % of control
survivor count (dose: 12.5 mg/kg/injection, schedule: Q01DX009 (ip), vehicle: Klucel (hydroxypropylcellulose) (HPC)): 6 of 6
survivor count (dose: 25.0 mg/kg/injection, schedule: Q01DX009 (ip), vehicle: Klucel (hydroxypropylcellulose) (HPC)): 6 of 6
survivor count [6]: 6 of 6
T/C (dose: 67.0 mg/kg/injection, schedule: Q04DX003 (ip), vehicle: Klucel (hydroxypropylcellulose) (HPC)): 130 % of control
survivor count [7]: 4 of 4
T/C [8]: 125 and 130 % of control
survivor count [9]: 4 of 5
survivor count [10]: 2 of 6

O=C1CSC(C23CC4CC(CC(C4)C2)C3)N1c1nccs1 (configuration not stated)
survivor count [3]: 6 of 6

C#CC[N+]12CN3CN(CN(C3)C1)C2
T/C [11]: 137 and 148 % of control
T/C [2]: 147 % of control
survivor count [2]: 3 of 6
survivor count [12]: 0 of 6

C=C(C)C(=O)OC1C2C(=C)C(=O)OC2CC(C)C2OC2C(=O)C(C)(O)C1OC(=O)C(=C)C (configuration not stated)
survivor count (dose: 100.0 mg/kg/injection, schedule: Q04DX002 (ip), vehicle: Klucel (hydroxypropylcellulose) (HPC)): 2 of 6
survivor count (dose: 200.0 mg/kg/injection, schedule: Q04DX002 (ip), vehicle: Klucel (hydroxypropylcellulose) (HPC)): 0 of 6
survivor count (dose: 400.0 mg/kg/injection, schedule: Q04DX002 (ip), vehicle: Klucel (hydroxypropylcellulose) (HPC)): 0 of 6

CCCCCCCCCCCCCCCCCCSc1ccccc1
survivor count [8]: 6 of 6
survivor count (dose: 200.0 mg/kg/injection, schedule: Q04DX003 (ip), vehicle: Klucel (hydroxypropylcellulose) (HPC)): 6 of 6
survivor count [10]: 6 of 6

O=C(O)c1ccc(N2C(=O)c3ccccc3C2=O)cc1[N+](=O)[O-]
survivor count [12]: 4 of 6

Cc1nc(C(=O)O)c(=O)[nH]c1C
survivor count (dose: 400.0 mg/kg/injection, schedule: Q01DX009 (ip), vehicle: water): 0 of 6
survivor count (dose: 400.0 mg/kg/injection, schedule: Q04DX003 (ip), vehicle: water): 0 of 6

O=C(O)/C=C/c1c(Cl)cccc1Cl
survivor count [3]: 1 of 6

O=[N+]([O-])c1ccc(S(=O)c2ccc([N+](=O)[O-])cc2)cc1
survivor count (dose: 400.0 mg/kg/injection, schedule: Q01DX009 (ip), vehicle: Klucel (hydroxypropylcellulose) (HPC)): 5 of 6

Cc1nnc2ncccn12
T/C [2]: 130 and 134 % of control
survivor count [12]: 2 of 6

COC(=O)c1c(Cl)c(Cl)c(Cl)c(Cl)c1C(=O)O
survivor count [13]: 3 of 6
survivor count [3]: 2 of 6

Cc1ccc(CBr)c2ccccc12
T/C [14]: 137 % of control
T/C [4]: 130 % of control
T/C [15]: 133 % of control
survivor count [15]: 3 of 6
survivor count [13]: 3 of 6
survivor count [3]: 0 of 6

O=C1OC2CCC3C1C3C2Br (configuration not stated)
survivor count (dose: 105.0 mg/kg/injection, schedule: Q04DX003 (ip), vehicle: Klucel (hydroxypropylcellulose) (HPC)): 0 of 6

O=[N+]([O-])c1cccc(Oc2ncccc2[N+](=O)[O-])c1
T/C [8]: 140 % of control

O=C(O)CCSc1ccccc1
survivor count (dose: 100.0 mg/kg/injection, schedule: Q01DX001 (ip), vehicle: saline with Tween-80): 3 of 6
survivor count (dose: 200.0 mg/kg/injection, schedule: Q01DX001 (ip), vehicle: saline with Tween-80): 0 of 6
survivor count (dose: 400.0 mg/kg/injection, schedule: Q01DX001 (ip), vehicle: saline with Tween-80): 0 of 6

CCCCN(C)c1ncnc2[nH]ncc12
survivor count [11]: 6 of 6

Nc1ncns1
survivor count (dose: 200.0 mg/kg/injection, schedule: Q04DX003 (ip), vehicle: saline): 1 of 6
survivor count (dose: 400.0 mg/kg/injection, schedule: Q04DX003 (ip), vehicle: saline): 0 of 6

CC[C@H](C)c1occ2c(O)c(C(=O)O)c(=O)cc-2c1C
survivor count [6]: 3 of 3
survivor count [7]: 0 of 3
survivor count [9]: 0 of 3

O=C([O][Hg][CH2]C1COC([CH2][Hg][O]C(=O)c2ccccc2)CO1)c1ccccc1 (configuration not stated)
survivor count (dose: 200.0 mg/kg/injection, schedule: Q04DX003 (ip), vehicle: saline with Tween-80): 2 of 6
survivor count [5]: 0 of 6

COc1c(Br)cc(/C=C/[N+](=O)[O-])cc1Br
T/C (dose: 6.25 mg/kg/injection, schedule: Q01DX009 (ip), vehicle: saline with Tween-80): 132 % of control
T/C [14]: 127 % of control
T/C [4]: 137 % of control
survivor count [15]: 0 of 6 and 1 of 6
survivor count [13]: 0 of 6
survivor count [3]: 0 of 6

Nc1ccn(CC(=O)c2cccs2)c(=O)n1
survivor count [13]: 2 of 6
survivor count [3]: 1 of 6
survivor count (dose: 400.0 mg/kg/injection, schedule: Q01DX009 (ip), vehicle: saline with Tween-80): 0 of 6
survivor count [5]: 5 of 6
